{
  "source": "paper PMC10093212",
  "about": "“Development of Cyclic Peptides Targeting the Epidermal Growth Factor Receptor in Mesenchymal Triple-Negative Breast Cancer Subtype” (Cells, 2023)",
  "tested_on": "EGFR overexpressed in MDA-MB-231 cells",
  "assay": "Phage display screening (C7C library), occurrence frequency of selected phage clones",
  "design": "species or system human",
  "details": "35 plaques from the third round of selection",
  "note": "Bridge positions count the residues as written; N and C are the ends. Ends that are not written are not given here.",
  "data": [
    {"sequence": "CEKMVATHC (disulfide 1-9 (inferred)) [01cys_EGFR, Phage-display selected cyclic EGFR peptide ligand, one disulphide bond, amidated C-terminus]", "values": [
      {"measurement": "occurrence frequency of selected phage clones, %", "result": 51.4, "unit": "%"},
      {"measurement": "occurrence frequency of selected phage clones, Ratio", "result": "18/35"}
    ]},
    {"sequence": "CPSDEHHTC (disulfide 1-9 (inferred)) [06cys_EGFR, Phage-display selected cyclic EGFR peptide ligand, one disulphide bond, amidated C-terminus]", "values": [
      {"measurement": "occurrence frequency of selected phage clones, %", "result": 20, "unit": "%"},
      {"measurement": "occurrence frequency of selected phage clones, Ratio", "result": "7/35"}
    ]},
    {"sequence": "CGTNPIKKC (disulfide 1-9 (inferred)) [30cys_EGFR, Peptide insert of selected M13 phage clone, tested only as phage]", "values": [
      {"measurement": "occurrence frequency of selected phage clones, %", "result": 8.5, "unit": "%"},
      {"measurement": "occurrence frequency of selected phage clones, Ratio", "result": "3/35"}
    ]},
    {"sequence": "CSRSMDSTC (disulfide 1-9 (inferred)) [04cys_EGFR, Peptide insert of selected M13 phage clone, tested only as phage]", "values": [
      {"measurement": "occurrence frequency of selected phage clones, %", "result": 20, "unit": "%"},
      {"measurement": "occurrence frequency of selected phage clones, Ratio", "result": "7/35"}
    ]}
  ]
}
